Test results as given in paper PMC5519194.
No constants are given. Whether binding was seen depends on the method and setting. Some binding calls cover weakened binding; strength is not graded here. Sequences can lack the tags named with a protein.

Target: 6myc-HAS2 (hyaluronan synthase 2, wild type) (UniProt Q92819)
Test: immunoblot after SDS-PAGE; lysates of HEK293T cells expressing 6myc-HAS2, blot with anti-myc; bands of 130-140 kDa beside the 70 kDa band

binding: binds
B1: 6myc-HAS2 (hyaluronan synthase 2, wild type) (enzyme, UniProt Q92819 1-552)
chain: MHCERFLCILRIIGTTLFGVSLLLGITAAYIVGYQFIQTDNYYFSFGLYGAFLASHLIIQSLFAFLEHRKMKKSLETPIKLNKTVALCIAAYQEDPDYLRKCLQSVKRLTYPGIKVVMVIDGNSEDDLYMMDIFSEVMGRDKSATYIWKNNFHEKGPGETDESHKESSQHVTQLVLSNKSICIMQKWGGKREVMYTAFRALGRSVDYVQVCDSDTMLDPASSVEMVKVLEEDPMVGGVGGDVQILNKYDSWISFLSSVRYWMAFNIERACQSYFGCVQCISGPLGMYRNSLLHEFVEDWYNQEFMGNQCSFGDDRHLTNRVLSLGYATKYTARSKCLTETPIEYLRWLNQQTRWSKSYFREWLYNAMWFHKHHLWMTYEAIITGFFPFFLIATVIQLFYRGKIWNILLFLLTVQLVGLIKSSFASCLRGNIVMVFMSLYSVLYMSSLLPAKMFAIATINKAGWGTSGRKTIVVNFIGLIPVSVWFTILLGGVIFTIYKESKRPFSESKQTVLIVGTLLYACYWVMLLTLYVVLINKCGRRKKGQQYDMVLDV
